# Results from PubChem BioAssay AID1508600 (Functional Genomics Laboratory (NCATS/FGL), 2020).
# Out of some 53,000 sequences screened, about 3,700 (7%) were called active.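 Rule for the calls: active = gene knockdowns whose robust z-score for IL-1 alpha signal is at least 2 or at most -2, so actives lie on both sides; inactive = the rest.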 The list shows a part of the results.
# Assay: Components of the Cytosolic LPS Sensing Pathway: Gene Identification via Genome-wide siRNA Screen;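 note: robust z of the log signal after scaling to non-targeting control siRNA wells of the plate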
# Conditions: RAW264.7 macrophages, IL-1a HTRF, actives lie on both sides, screened at 100 nM (by protocol), cells primed 5 h with Pam3CSK4 first
# In short: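 Supernatant IL-1a by HTRF from RAW264.7 cells primed with Pam3CSK4 (5 hours) and transfected with LipidA (24 hour) after 48h siRNA knockdown at 100 nM; cell viability checked with CellTiter-Glo.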
row,Sequence,z-score
1,GGAUAUAUACCUAUUCUGATT against Utp18,inactive: -0.046
2,GCAGUUCGUAGUAUUUGAATT against B4galt1,inactive: -0.646
3,GGUGACAACUGACCUCAACTT against Oog4,inactive: -0.152
4,GGCUACGCAAACAGUUUGGTT against Actn1,inactive: 1.82
5,CCAGAUCAGCAAUAUCAAATT against Lasp1,inactive: 1.69
6,CCUUCUGUUAGCCAAUAUATT against Tnmd,inactive: 0.707
7,GGUGUUGGUUGAGAACUUCTT against Tbxas1,inactive: -0.551
8,GGGCUUCUUUGACCUCAUCTT against Kdelr1,active: -2.71
9,GGUACUUUACACUGAACAATT against Serpinb13,active: 2.91
10,GGGAGUAUUACCUCCUUCATT against Igbp1b,inactive: 0.00303
11,GGAACAAAUGGACGAUCUGTT against Eif2d,inactive: 0.205
12,GGAAAAUCCAGAGGUACGUTT against Kcnj6,inactive: 0.409
13,GCACCGAGUGGAAUAAUCATT against Lrp12,active: 3.44
14,GGUUUUGGUUUUGUGGAAUTT against Srsf5,inactive: 1.45
15,GCAGGAACACUGGUUUGAATT against Otud5,inactive: -0.653
16,GGAAAAGAAAAAGUUGGGCTT against Rbm42,inactive: 0.313
17,CUUCUGAAUCCAGUGCCCATT against Tmem199,inactive: 0.77
18,GGACUAUUAGAUUCCAGCATT against Wnt6,inactive: -0.311
19,GGAAAGUGCCCUCCACACUTT against Lgi4,inactive: 0.0864
20,GGGAACUUAACCUAGGCGUTT against Pdx1,inactive: 0.611
21,UGGAAGCCUUAUGCCGUCUTT against Gpr31b,inactive: 0.895
22,GGAAAAGGAGAUAUCCAGCTT against Bag5,inactive: 1.22

row,Sequence,z-score
1,GCUUGUCUACUUCCUAGAUTT against Rnpep,inactive: 0.442
2,GGCUCGGUACUUAAAGGAUTT against Trmt6,inactive: 0.538
3,GGAAUUCAUCUGUUAGAUUTT against Tti2,inactive: -1.4
4,GCACUACCAAGGCGAUAACTT against Tspan18,inactive: -0.624
5,GGGCUGAAAAAGGAACUGCTT against Ccdc163,inactive: 0.245
6,GCUACAGGUUUUAUCUCUUTT against Myl10,inactive: 0.531
7,GGAAACAUCUUGUUGCUUUTT against Chkb,inactive: -0.489
8,GGAAACAGAGACUGAAUUUTT against Cc2d2a,inactive: 1.77
9,GCCUUUUACUACCAUCCCGTT against Rbfox2,inactive: -1.35
10,GGAUCAAGUCUACAGCUAGTT against Olfr225,inactive: -0.802
11,GCUAGUUUGGACCAUACGGTT against Ehhadh,inactive: 0.0291
12,GGUUGUCUAUGAUUCAGGGTT against Creb3l4,inactive: -0.129
13,CCGGCUUCACCGAAUACUUTT against Tmem145,inactive: -0.426
14,GCUUACUGACUUUGGAUGCTT against Mrgpra4,inactive: 0.89
15,GCCUGAUGCCUGCAUAAGUTT against Gla,inactive: 0.157
16,GGAAUUACCAGUGAAAAAUTT against Ubtd2,inactive: 1.95
17,GGAACUAAUGACCAUUUUCTT against Lix1,inactive: -1.15
18,GCGAUGGUAUGUUGAAGGATT against 4930432E11Rik,inactive: 0.639
19,GCAAAAGUAUUUUGUGUCCTT against Aamp,inactive: 0.241
20,GGGAAGCUGACAAUGGAACTT against Nmb,inactive: 0.623
21,CGGCGGUUUAAUGAAAAUATT against Cbfa2t2,active: -2.58
22,GCUGCUUCUAAACUUUGUATT against Dleu7,inactive: 0.561

row,Sequence,z-score
1,GGUGUCCAUGAAAGAGCUCTT against Dlk1,inactive: 0.0807
2,GGAUGUCAACAUUCGAGAUTT against Tmem231,inactive: 0.993
3,GCUAACUGCCUUGGGAAGATT against Lyl1,active: 2.57
4,GGCUGACACAAGAUGGCUGTT against Ebpl,active: 2.41
5,GCACCAGGCCAAAUGAAGUTT against Srsf12,inactive: -1.45
6,GGGCCACAAAGAAAUCAUATT against Wdr92,inactive: 1.4
7,GGCGGUUUCAAAAGCUUCCTT against Dusp2,inactive: -0.472
8,GGCUAAGAGCCACCUAGAGTT against Ccdc124,inactive: -1.36
9,CCGAGAGGUUUAAGGUCUCTT against Nsg1,inactive: 1.18
10,GGAGAGCUGUGUUUGUAACTT against Mllt1,inactive: 0.378
11,GGAUUACGGUCACUGCCAUTT against Gabrr2,inactive: 1.01
12,GCUCCCAGAUGUGAAACAATT against Taf7l,inactive: 0.224
13,GGCUUAUGAUUUCUGAAAATT against Malt1,inactive: -0.119
14,GCACGAAUCCUUGGAGAAATT against Batf2,inactive: -0.254
15,GGAGGUUACAAUCCAUGAGTT against Anapc1,inactive: -0.951
16,GGUCUUCUCAAUAGCGAGGTT against Plce1,inactive: -0.293
17,GCUAUGAUCAUAGUACGAUTT against Adam25,inactive: 0.25
18,GGACUUCACAAUCUCUUUCTT against Hck,inactive: -0.11
19,GGAUGAUCAUUCUAGCUGUTT against Hormad1,inactive: 0.836
20,CCUGGUGCUUCGUAAUUACTT against Cyp11a1,inactive: -1.03
21,GGGAUUCAGAGAUCAUGCATT against Serf1,inactive: -0.504
22,CCUGGAGAGUGAUACGUUCTT against Serpina1f,inactive: -0.228

# 2 entries picked at random from the list so far, as already listed:
row,Sequence,z-score
2,GGAUGUCAACAUUCGAGAUTT against Tmem231,inactive: 0.993
1,GGUGUCCAUGAAAGAGCUCTT against Dlk1,inactive: 0.0807

# (continued)

row,Sequence,z-score
1,GGACUUUCUGGACUCCCGATT against Wnt10a,inactive: -0.368
2,GGAAUUAAAGAGGAACUCCTT against Adamts20,inactive: 0.172
3,GGCCUUUACAUGUCCCAGCTT against BC002059,inactive: 0.456
4,GGAAGAACUUUAAAAAUGCTT against Cd99l2,inactive: 1.37
5,GGGUGUGCAUCUUGUUUUCTT against Olfr1312,inactive: -1.05
6,GGCAGAGAUGGAGUUGGUCTT against Azin2,inactive: -0.0183
7,GGAAGUGCCCAUGAAUCCUTT against Irf6,inactive: -0.433
8,GGAAAUAUAGUAAAGCAGATT against Cdca7l,inactive: -1.13
9,CCAGAUGACAAUGAGUCAGTT against Ss18,inactive: -0.197
10,GGAAUGGUUUUAUUUUUGGTT against Noa1,inactive: -0.0245
11,GGAAAUUUACUAGGAGAACTT against Carf,inactive: -1.15
12,GGGUGGUACUAAACUCCAUTT against Sirpa,inactive: -0.861
13,GGAUUCGGAAUACUACGAUTT against Abo,inactive: 1.62
14,GGCAAAUGAGAAACAGCAATT against Cxcl16,active: -2.23
15,GGCUGAGACGGAAUCUUUATT against Bfsp2,inactive: -1.17
16,GGAGUCGUUUAAGCUUUAATT against Zfhx3,inactive: 0.963
17,GGGUACUGCUUCAACCAACTT against P2rx3,inactive: 0.308
18,GGACACAAAUGACAUCAACTT against Sirpa,active: 2.13
19,GGACUUCGUGUUCAUACAUTT against Tmie,inactive: 0.548
20,GGAGAGGGAUCAUAGAAAATT against Hey2,inactive: 0.0862
21,GGAAUGUGGUUUCCUGUUATT against Fscn3,inactive: 0.502
22,AACUUUCCUGCUCUAACACTT against Olfr930,inactive: -1.27

# At a glance, some entries already given.
row,Sequence,z-score
15,GGCUGAGACGGAAUCUUUATT against Bfsp2,inactive: -1.17
16,GGAGUCGUUUAAGCUUUAATT against Zfhx3,inactive: 0.963
17,GGGUACUGCUUCAACCAACTT against P2rx3,inactive: 0.308

# Next records follow:

row,Sequence,z-score
1,UUCCAGAAAAGAAGUGCACTT against Defb41,inactive: 0.356
2,GGUCUUGGACCUCAGGAAGTT against 3110040N11Rik,inactive: 0.644
3,AAUGCAAACAAUGCAAAUGTT against Mt2,inactive: -0.174
4,GGAAGUCGCCUACAUCCUUTT against Lenep,inactive: 0.643
5,CGCAUUAGAGAGAUGAACATT against Acap2,inactive: -0.566
6,GGCCAAAAGGUUGAGCAGUTT against Nsun2,inactive: 0.311
7,CCUUCGUAGCCUGUAUCAUTT against Myadm,inactive: -0.173
8,CCCAACUUUGGGCUUGUCUTT against Cluap1,inactive: 0.37
9,GCUCAUGUCCUAUAUUCAATT against Scfd2,inactive: 0.244
10,GGGCAUUGAGACUUUGCUGTT against Sit1,inactive: 0.692
11,CCUGGUCACAGGCAUUAAATT against Lkaaear1,inactive: 0.248
12,GGACUUUGUGCAUUUGUUATT against Ly75,inactive: 0.693
13,GGGCAUGAGAAAUCCACAGTT against Rhox9,inactive: -1.23
14,GGCUUCGGAUAUGGCUACATT against Krtap19-4,inactive: 0.0557
15,GGCAUCCCACUGAAGAACATT against Cmas,inactive: -0.0744
16,GGCGAAGCUUGAAGAACAUTT against Ipo5,inactive: 0.273
17,GGAGGAGGUUCAUAUUAAATT against A330041J22Rik,inactive: 0.0777
18,GGAGAACAUCACUGAUCCATT against Grin1,inactive: 0.125
19,GGAUAACAAAAGUAUCCAGTT against Ikbke,inactive: 0.793
